Some of the results follow. Shown are side measurements of this screen, not its main read-out; they come without a call. Most of these compounds were active or inconclusive in the main read-out, so they are no random draw. Potencies come from curve fits of mixed quality, noted in brackets.
Test: qHTS Assay for Lipid Storage Modulators in Drosophila S3 Cells;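 as to cell number change: cells counted by Cell Tracker Red CMTPX staining in the red channel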
Conditions: BODIPY lipid droplet fluorescence, 18-24 h; for cell number change: measured here: cell count max response, cells fed with added oleic acid
Outline: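 Drosophila S3 cells got compounds at several concentrations plus oleic acid (400 uM solution). Laser-scanning cytometry with 488 nm excitation read lipid droplets at 500-530 nm and cells at 575-640 nm. Percent activity was relative to 20 uM Triacsin C.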

[1] = measured here: lipid fluorescence (Fed channel) AC50, cells fed with added oleic acid
[2] = measured here: cell number channel AC50, cells fed with added oleic acid

SMILES	cell number change	AC50 [1]	AC50 [2]
Cc1nc(NNC(=O)c2ccccc2)cc(-c2ccccc2)n1	5.95%	6.51 µM [rising, single point]	–
CCN(C(=O)COC(=O)CNC(=O)C1CCCCC1)c1ccccc1	–	1.64 µM [falling, single point]	–
C/C(=N\Nc1cccc(C(F)(F)F)c1)c1ccc(O)cc1	-10.8%	–	–
Cc1ccc2c3c1C(=O)C(=O)N3C(C)(C)CC2C (stereo not drawn)	-11%	9.2 µM [rising, partial curve, poor fit]	–
N#Cc1c(N)nc(-c2ccccc2)nc1-c1ccccc1	-39.6%	29.1 µM [falling, single point]	18.4 µM [falling, partial curve]
COc1ccc(S(=O)(=O)Nc2ccc(S(=O)(=O)Nc3nc(C)cc(C)n3)cc2)cc1OC	-1.09%	0.731 µM [falling, full curve, poor fit]	–
O=C(O)c1[nH]c2ccccc2c1C(c1cc(Cl)cc([N+](=O)[O-])c1O)c1c(C(=O)O)[nH]c2ccccc12	-33.7%	–	29.1 µM [falling, single point]
CC(=O)N[C@@H](Cc1c[nH]c2ccccc12)C(=O)OCc1ccc(C#N)cc1	-17.1%	–	–
CC1CCc2sc(C(=O)N3CCC(C(N)=O)CC3)cc2C1 (stereo not drawn)	1.53%	5.8 µM [falling, full curve]	–
Cc1ccc(NC(=O)C2CCCN2S(=O)(=O)c2ccc3c(c2)CCC(=O)N3)cc1Cl (stereo not drawn)	-1.52%	–	–
COc1ccc(OC)c(CN2CCN(C(=O)CNC(=O)c3cc(C)cc(C)c3)CC2)c1	1.63%	6.51 µM [rising, single point]	–
CC(=O)N1CC(C)Sc2ccc(S(=O)(=O)NCCc3ccccc3)cc21 (stereo not drawn)	-40.5%	–	0.00517 µM [falling, full curve, poor fit]
O=C(Nc1ccccn1)C1CCN(S(=O)(=O)c2ccc3c(c2)OCCO3)CC1	33.7%	13 µM [rising, partial curve]	18.4 µM [rising, partial curve, poor fit]
COc1ccc(N2CCN(C(=O)CCCCCn3c(=S)[nH]c4cc5c(cc4c3=O)OCO5)CC2)cc1	1.18%	0.58 µM [rising, single point]	–
O=C(NCc1ccc(Cl)s1)c1cc(COc2c(F)cccc2F)on1	-1.67%	0.259 µM [rising, full curve, poor fit]	–
O=[N+]([O-])/C=C/c1cn(Cc2ccc(F)cc2)c2ccccc12	–	9.2 µM [falling, partial curve]	–
COc1ccc(NC(=O)CCSc2ccc3ccccc3n2)cc1	-34.5%	6.51 µM [rising, partial curve, poor fit]	2.31 µM [falling, partial curve, poor fit]
Cc1ccc(OCCCCN2CCC(C)CC2)c(Br)c1	-16.7%	–	6.51 µM [falling, single point]
CC1=C(C(=O)Nc2cccc(C(=O)NC3CCCCC3C)c2)SCCO1 (stereo not drawn)	-0.295%	5.8 µM [falling, single point]	–
CCOC(=O)N1CCN(C(=O)CSc2nc3ccccc3c(=O)n2-c2ccccc2)CC1	-8.68%	–	–

SMILES	cell number change	AC50 [1]	AC50 [2]
O=C(Nc1ccccc1C(=O)O)c1ccc(N2C(=O)C3CC=CCC3C2=O)cc1 (stereo not drawn)	-27.9%	–	0.146 µM [falling, full curve, poor fit]
CCN=C1SC(CC(=O)NCCc2ccc(OC)cc2)C(=O)N1CC (stereo not drawn)	31.2%	–	29.1 µM [rising, single point]
Cc1cccnc1Sc1c([N+](=O)[O-])ncn1C	-4.2%	3.26 µM [rising, single point]	–
O=C(N/N=C/C(Cl)=C/c1ccccc1)c1ccncc1	–	–	6.51 µM [rising, single point]
Cc1sc2nc(SCC(=O)NCCO)n(-c3ccccc3)c(=O)c2c1C	15.3%	0.82 µM [falling, single point]	–
O=C(NC(=S)N1CCN(CCO)CC1)C12CC3CC(CC(C3)C1)C2	30.5%	11.6 µM [rising, partial curve, poor fit]	1.16 µM [rising, full curve]
Cc1cc(C)c2nc3nc(C)c(C)cc3c(N)c2c1	0.172%	–	–
CCOC(=O)c1ccc(NC(=O)CSc2nncn2-c2cccnc2)cc1	3.36%	0.103 µM [rising, full curve, poor fit]	–
O=C(Nc1ccc(F)cc1)C1CCCN(S(=O)(=O)c2cccc3cccnc23)C1 (stereo not drawn)	15.6%	–	–
C1=C[C@@H]2CCN(Cc3ccccc3)Cc3cccc(c32)C1	-30.1%	6.51 µM [rising, single point]	16.4 µM [falling, single point]
C#CCn1c(=NC(=O)c2ccc(Br)s2)sc2cccc(OC)c21	1.01%	–	–
CN(CCOc1cccc2ccccc12)Cc1ccccc1	-28.3%	–	–
O=C(CC(=O)N/N=C/c1ccc(F)cc1)N/N=C/c1ccc(F)cc1	–	1.84 µM [rising, single point]	–
Cc1nc2nc(-c3ccc(Cl)cc3)nn2c(C)c1Cl	8.2%	6.51 µM [rising, single point]	0.184 µM [rising, partial curve, poor fit]
CS(=O)(=O)c1ccc(C(=O)N2CCc3ccccc3C2)cc1	-41.5%	–	3.66 µM [falling, full curve]
O=C(CSc1nnc(-c2ccccc2F)o1)N1CCCC1	–	1.16 µM [falling, full curve, poor fit]	–
CC(C)(C)NC(=O)NC(=O)COc1ccccc1C#N	–	–	0.231 µM [rising, full curve]
Cc1cccc(C(=O)NCC(=O)NCCCSc2ccccc2)c1	31.4%	29.1 µM [rising, single point]	29.1 µM [rising, single point]
O=C(Nc1nc2ccc(F)cc2s1)C1=NN(c2ccccc2)C(=O)CC1	-10.2%	0.206 µM [rising, full curve]	–
CN(C)c1cc[n+](CC(=O)Nc2cccc([N+](=O)[O-])c2)cc1	20.7%	0.00461 µM [rising, full curve, poor fit]	–

A second format for some results above.
SMILES | cell number change | AC50 [1] | AC50 [2]
Cc1cccnc1Sc1c([N+](=O)[O-])ncn1C | -4.2% | 3.26 µM [rising, single point] | –
O=C(N/N=C/C(Cl)=C/c1ccccc1)c1ccncc1 | – | – | 6.51 µM [rising, single point]
Cc1sc2nc(SCC(=O)NCCO)n(-c3ccccc3)c(=O)c2c1C | 15.3% | 0.82 µM [falling, single point] | –

— PubChem BioAssay AID2685 (National Center for Advancing Translational Sciences (NCATS), 2010)
